The values that follow come from patent publication US20240043844A1.

These are yes or no findings as the source states them, for the method shown. Some results given as binding are weak or reduced against the parent protein; the word gives no strength.

Assay [1] addresses human CD71 (human) (UniProt P02786). The assay is described as follows: target binding assay using over 6,000 receptors in the proteome array (FIG. 3).
For assay [2] the target is unchanged. The assay is described as follows: membrane proteome array, flow cytometry on QT6 cells expressing human membrane proteins.

B1: polypeptide comprising the sequence of SEQ ID NO: 509 (human CD71-binding FN3 domain) (designed binder)
chain: MLPAPKNLVVSRVTEDSARLSWTAPDAAFDSFYIAYAEPRPDGEAILLQVPGSCRSYDLTGLKPGTEYSVLIHGVKGGLLSSPLTAIFTT
Consider B1, for which the binding result with human CD71 (human) [1] and with human CD71 (human) [2] was “binds” each time.
